The text below walks through data of patent US20170119775A1, “TREATMENT OF COGNITIVE DISORDERS” (Algiax Pharmaceuticals GmbH, priority 2014, published 2017).

Data set [1] concerns male Wistar rats. As to the kind of experiment: ORT, natural forgetting, co-administration of sub-efficacious doses of AP61 and donepezil. Format: in vivo, rat. The conditions noted are these: AP61 0.01 mg/kg p.o. 4 min after T1 and/or donepezil 0.1 mg/kg p.o. 30 min before T1; 24 h delay; mean (SEM).
Data set [2] concerns male Wistar rats. The data set can be described thus: Object recognition task (ORT), natural forgetting, 24-h interval. Format: in vivo, rat. The following applies: 24 h delay, mean (SEM). Here is the method: In example 1, the compound AP-61 a 7-(4-tert butyl-cyclohexyl)-imidazotriazione (a compound of the formula II) was tested in the ORT in 3-4 month old male Wistar rats using a 24-h interval between the trials to induce natural forgetting.
One group of twenty four 3-4 month old male Wistar rats (Charles River, Sulzfeld, Germany) were used (average body weight at the beginning of the study: 365 g). All animals were housed individually in standard green line Tecniplast IVC cages on sawdust bedding. The animals were housed on a reversed 12/12-h light/dark cycle (lights on from 19:00 h to 07:00 h) and had free access to food and water. The rats were housed and tested in the same room. A radio, playing softly, provided background noise in the room. All testing was performed between 09:00 h and 18:00 h.
AP-61 was dissolved in 0.5% methylcellulose (MC) and 2% Tween 80. The solutions were prepared daily. Doses of 0.01, 0.03 and 0.1 mg/kg of AP-61 or vehicle were administered p.o. (injection volume was 2 ml/kg), immediately after T1. Of note, PDE4 inhibition effects only late consolidation in the ORT, i.e. at about 3 h after T1 (Rutten et al., 2007).
The ORT was performed as described elsewhere (Ennacour and Delacour, 1988). The apparatus consisted of a circular arena, 83 cm in diameter. Half of the 40 cm high wall was made of gray polyvinyl chloride, the other half of transparent polyvinyl chloride. Fluorescent red tubes and a light bulb provided a constant illumination of about 20 lux on the floor of the apparatus.
Two objects were placed in a symmetrical position about 10 cm away from the gray wall. Four objects were used: 1) a standard 1 L brown transparent glass bottle (diameter 10 cm, height 22 cm) filled with water, 2) a metal cube (10.0×5.0×7.5 cm) with two holes (diameter 1.9 cm), 3) a cone consisting of a gray polyvinyl chloride base (maximal diameter 18 cm) with a collar on top made of brass (total height 16 cm), and 4) an aluminum cube with a tapering top (13.0×8.0×8.0 cm). A rat could not displace the objects.
A testing session comprised two trials, each with durations of 3 min. During T1 the apparatus contained two identical objects (samples). A rat was always placed in the apparatus facing the wall at the middle of the front (transparent) segment. After T1 the rat was put back in its home cage for a 24-h interval. Subsequently, the rat was put back in the apparatus for T2, but now with a familiar object from T1 (the sample) and a new object. The times spent in exploring each object during T1 and T2 were recorded manually with a personal computer.
Exploration was defined as follows: directing the nose to the object at a distance of no more than 2 cm and/or touching the object with the nose. Sitting on the object was not considered as exploratory behavior. In order to avoid the presence of olfactory cues, the objects were thoroughly cleaned after each trial and three sets of objects were used. All combinations and locations of objects were used in a balanced manner to reduce possible biases due to preferences for particular locations of objects.
Prior to compound testing studies, the animals were handled daily, adapted to the procedure, and allowed to explore the apparatus.
The measures were the times spent by rats in exploring each object during T1 and T2. The time spent in exploring the two identical samples in T1 were represented by ‘a1’ and ‘a2’, respectively. The time spent in exploring the sample and the new object in T2 were represented by ‘a’ and ‘b’, respectively. From these exploration times the following variables were calculated: e1, e2 and d2 (Table 1). The minimum level of exploration needed for a reliable memory performance is 7 s (Akkerman et al., 2012). When exploration was below this cut-off, rats were removed from the analysis. Furthermore, the d2 index is a relative measure of discrimination corrected for exploratory activity. […]

Where [3] appears, read: AP61 0.01 mg/kg p.o. immediately after T1.
Setting [4] is: AP61 0.03 mg/kg p.o. immediately after T1.
Where [5] appears, read: AP61 0.1 mg/kg p.o. immediately after T1.

Structures can show the parent of a compound that is named as a salt.

As to `CCc1nc(C2CCC(C(C)(C)C)CC2)n2nc(-c3ccccc3)[nH]c(=O)c12` (stereo not shown) [AP61, 7-(4-tert-butylcyclohexyl)-5-ethyl-2-phenylimidazo[5,1-f][1,2,4]triazin-4(3H)-one], the “e1, total exploration time during T1” value is on record as 45.00 (1.77) s in the data set on male Wistar rats [1], 21.88 (1.78) s in the data set with male Wistar rats [2] (setting [3]), 18.88 (1.48) s in the data set with male Wistar rats [2] (setting [4]) and 22.44 (1.55) s in the data set on male Wistar rats [2] (setting [5]). The “e2, total exploration time during T2” value is 47.45 (2.49) s with male Wistar rats [1], 24.54 (1.79) s in the data set with male Wistar rats [2] (setting [3]), 22.58 (1.69) s in the data set on male Wistar rats [2] (setting [4]) and 22.34 (2.01) s in the data set on male Wistar rats [2] (setting [5]).
Turning to `COc1cc2c(cc1OC)C(=O)C(CC1CCN(Cc3ccccc3)CC1)C2` (stereo not shown) [donepezil, 1-benyZl-4-[(5,6-dimethoxy-1-indanon)-2-yl]methylpiperidine monohydrochloride, reference compound], in the data set with male Wistar rats [1], the “e1, total exploration time during T1” value is recorded as 45.72 (1.89) s and the “e2, total exploration time during T2” value was 46.54 (1.62) s.
